Patent US20070066551
The exact form of at least one protein or probe is not confirmed. A negative result means that nothing was seen under these conditions.

Chains of the proteins cited; added tags and fusions are not shown. A line that says so, or that is headed by a name, gives the form on record, which may keep a tag or linker.
IgE (Homo sapiens), one chain, as listed by the source: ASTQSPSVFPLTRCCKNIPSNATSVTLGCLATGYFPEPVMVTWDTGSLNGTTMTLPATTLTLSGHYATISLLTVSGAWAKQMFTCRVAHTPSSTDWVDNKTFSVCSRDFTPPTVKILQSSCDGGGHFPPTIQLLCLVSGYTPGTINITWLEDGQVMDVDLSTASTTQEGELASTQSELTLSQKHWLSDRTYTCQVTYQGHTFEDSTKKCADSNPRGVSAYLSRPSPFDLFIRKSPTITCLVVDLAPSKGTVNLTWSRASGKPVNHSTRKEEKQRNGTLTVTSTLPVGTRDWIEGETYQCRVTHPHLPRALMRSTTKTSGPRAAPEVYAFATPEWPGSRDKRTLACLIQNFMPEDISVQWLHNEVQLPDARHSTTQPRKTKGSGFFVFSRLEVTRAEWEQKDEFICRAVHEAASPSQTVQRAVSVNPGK

Tested on: IgE (Homo sapiens)
Test: filter binding
Settings: other modifications as ARC1335, No binding, DPBS with Ca/Mg, BSA, RT, label: 5'-32P, letters built from the parent sequence and the stated change, variant of ARC1335

AGCCUGGGGACCCAUGGGGGGCU [ARC1555]: no binding (as ARC1335 with dI at 9, 3'-idT [dI at 9 (parent base G)).
AGCCUGGGGACCCAUGGGGGGCU [ARC1554]: no binding (as ARC1335 with dI at 8, 3'-idT [dI at 8 (parent base G)).
AGCCUGGGGACCCAUGGGGGGCU [ARC1553]: no binding (as ARC1335 with dI at 7, 3'-idT [dI at 7 (parent base G)).
AGCCUGGGGACCCAUGGGGGGCU [ARC1552]: no binding (as ARC1335 with dI at 6, 3'-idT [dI at 6 (parent base G)).
